Like-named read-outs stand apart in the source and are kept apart here. At least one compound was matched to its structure with a doubt left.
Columns and labels:
Format in all cases: biochemical
[1] = biological target: T1, CD45 (Homo sapiens, UniProt P08575); assay: Phosphotyrosine phosphatase CD45 inhibition
T1 construct: CD45 was immunoprecipitated from Jurkat T cells with mAb 9.4 and assayed as the immune complex; endogenous in cells; host or cells: Jurkat T cells (immunoprecipitate with mAb 9.4)
T1 sequence (P08575 26-1306): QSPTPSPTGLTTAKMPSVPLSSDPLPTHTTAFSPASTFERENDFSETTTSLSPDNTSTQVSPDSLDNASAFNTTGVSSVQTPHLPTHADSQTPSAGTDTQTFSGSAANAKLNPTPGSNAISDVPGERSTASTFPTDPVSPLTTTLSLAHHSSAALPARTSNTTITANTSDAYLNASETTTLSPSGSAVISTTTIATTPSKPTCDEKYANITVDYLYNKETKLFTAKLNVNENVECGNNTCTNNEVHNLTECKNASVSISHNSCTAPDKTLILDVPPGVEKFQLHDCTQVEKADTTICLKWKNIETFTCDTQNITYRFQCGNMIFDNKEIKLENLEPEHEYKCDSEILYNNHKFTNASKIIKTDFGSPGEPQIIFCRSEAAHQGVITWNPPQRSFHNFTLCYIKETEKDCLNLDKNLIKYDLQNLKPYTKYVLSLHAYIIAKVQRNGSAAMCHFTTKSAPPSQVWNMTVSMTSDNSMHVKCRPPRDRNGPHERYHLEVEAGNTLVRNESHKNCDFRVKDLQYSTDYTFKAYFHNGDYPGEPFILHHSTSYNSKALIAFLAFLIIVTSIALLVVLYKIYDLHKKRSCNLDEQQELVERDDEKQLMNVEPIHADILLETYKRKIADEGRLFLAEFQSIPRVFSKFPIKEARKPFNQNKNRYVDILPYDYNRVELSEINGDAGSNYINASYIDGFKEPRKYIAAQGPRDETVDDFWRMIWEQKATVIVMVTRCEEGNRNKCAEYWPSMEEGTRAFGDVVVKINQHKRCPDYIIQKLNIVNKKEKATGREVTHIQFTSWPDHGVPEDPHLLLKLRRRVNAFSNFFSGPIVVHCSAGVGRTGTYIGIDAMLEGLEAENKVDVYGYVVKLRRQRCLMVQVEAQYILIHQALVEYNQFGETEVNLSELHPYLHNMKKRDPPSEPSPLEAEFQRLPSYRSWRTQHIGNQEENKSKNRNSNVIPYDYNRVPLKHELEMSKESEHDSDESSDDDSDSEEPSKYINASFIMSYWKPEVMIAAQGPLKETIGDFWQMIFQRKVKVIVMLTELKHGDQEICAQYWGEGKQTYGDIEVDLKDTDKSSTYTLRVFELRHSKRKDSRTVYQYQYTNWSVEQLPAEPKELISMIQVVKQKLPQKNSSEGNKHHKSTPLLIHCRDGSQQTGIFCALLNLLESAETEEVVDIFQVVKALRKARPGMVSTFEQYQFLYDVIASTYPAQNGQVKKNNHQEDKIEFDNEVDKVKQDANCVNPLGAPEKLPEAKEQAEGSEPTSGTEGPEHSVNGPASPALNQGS

Chains of the proteins cited; added tags and fusions are not shown.
UniProt P67775, whole entry: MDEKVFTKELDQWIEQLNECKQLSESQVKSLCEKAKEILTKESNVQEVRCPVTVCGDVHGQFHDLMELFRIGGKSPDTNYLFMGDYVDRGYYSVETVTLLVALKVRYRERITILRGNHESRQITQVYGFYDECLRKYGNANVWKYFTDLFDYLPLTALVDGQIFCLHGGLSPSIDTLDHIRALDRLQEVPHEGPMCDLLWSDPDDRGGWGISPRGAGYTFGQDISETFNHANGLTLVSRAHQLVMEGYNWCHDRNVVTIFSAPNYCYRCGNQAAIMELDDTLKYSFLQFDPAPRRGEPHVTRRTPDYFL

[2] = biological target: T2, PP2A (Homo sapiens, UniProt P67775); assay: Serine/threonine phosphatase PP2A inhibition
T2 construct: purchased Upstate Biotechnology, Lake Placid, N.Y

[3] = biological target: PP1; assay: Serine/threonine phosphatase PP1 inhibition
[4] = Table 1, p-nitrophenyl phosphate substrate

Cc1occc(=O)c1[O-].Cc1occc(=O)c1[O-].[O]=[V+2] [BMLOV, Bis(maltolato)oxovanadium (IV)]
IC50 [1]: ~0.025 µM | IC50 ([1]; Table 1, phosphorylated myelin basic protein substrate): 0.025 µM | IC50 ([1]; Table 8): 25 µM | IC50 [2, 4]: 3.34 µM | IC50 ([2]; Table 8): 3340 µM | IC50 [3, 4]: 6.16 µM | IC50 ([3]; Table 8): 6160 µM
